PubChem BioAssay AID1224830 | NIAID, 2016

Test: 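Genes whose knock-down alters the TNF-alpha reporter response to LPS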 (primary screen)
Cells: human THP-1 monocytic leukaemia cells, TNF dual-luciferase reporter clone, PMA-differentiated to macrophage-like cells
Reagents: siRNA pool against human genes, 50 nM
Duration: LPS for 4 h, given about 3 days after siRNA transfection
Conditions: bacterial LPS (TLR4 ligand), 10 ng/ml
Detection: 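Ratio of firefly to renilla light, scaled to the plate median and expressed as a robust z-score per replicate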
Scale: TNF reporter robust z-score: higher = stronger TNF reporter response to LPS
Hit rule: 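a well is active when its z-score exceeds 2.8 or falls below -1.5; control wells carry no call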
This is one part, drawn at random, of about 18,000 reagents. In the full data, about 2,900 (16%) got an active call. 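Calls are made per well; low scores hint the gene aids the LPS response, high scores that it dampens it.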 The numbers tell different reagents against one gene apart. Repeated entries: four replicate wells of each siRNA pool.

target | reagent no. | TNF reporter robust z-score | Outcome
PWWP3A | 1 | 0.93 | inactive
PWWP3A | 1 | 0.99 | inactive
PWWP3A | 1 | 0.17 | inactive
PWWP3A | 1 | 1.92 | inactive
MCC | 1 | -0.54 | inactive
MCC | 1 | 0.46 | inactive
MCC | 1 | -0.5 | inactive
MCC | 1 | 0.36 | inactive
RAET1L | 1 | -0.24 | inactive
RAET1L | 1 | 0.64 | inactive
RAET1L | 1 | -0.03 | inactive
RAET1L | 1 | 0.29 | inactive
ADAM15 | 1 | -0.92 | inactive
ADAM15 | 1 | -0.12 | inactive
ADAM15 | 1 | 1 | inactive
ADAM15 | 1 | 0.64 | inactive
SPATC1 | 1 | 0.04 | inactive
SPATC1 | 1 | -1.11 | inactive
SPATC1 | 1 | 0.86 | inactive
SPATC1 | 1 | 0 | inactive
RNF121 | 1 | 3.68 | active
RNF121 | 1 | -0.52 | inactive
RNF121 | 1 | 1.15 | inactive
RNF121 | 1 | 8.71 | active
MIR1-1HG | 1 | 0.65 | inactive
MIR1-1HG | 1 | 3.21 | active
MIR1-1HG | 1 | 1.21 | inactive
MIR1-1HG | 1 | 0.38 | inactive
SESN1 | 1 | 1.26 | inactive
SESN1 | 1 | 0.42 | inactive
SESN1 | 1 | 0.47 | inactive
SESN1 | 1 | 1.31 | inactive
TOR3A | 1 | -0.19 | inactive
TOR3A | 1 | 0.53 | inactive
TOR3A | 1 | -0.48 | inactive
TOR3A | 1 | 0.3 | inactive
BMP3 | 1 | 0.28 | inactive
BMP3 | 1 | -0.94 | inactive
BMP3 | 1 | -0.38 | inactive
BMP3 | 1 | 0.61 | inactive
SPTB | 1 | 0.64 | inactive
SPTB | 1 | 0.02 | inactive
SPTB | 1 | -0.35 | inactive
SPTB | 1 | 4.16 | active
CAPN9 | 1 | 0.33 | inactive
CAPN9 | 1 | -0.56 | inactive
CAPN9 | 1 | 0.87 | inactive
CAPN9 | 1 | 1.3 | inactive
PLS1 | 1 | -0.51 | inactive
PLS1 | 1 | -0.15 | inactive
PLS1 | 1 | 0.57 | inactive
PLS1 | 1 | 0.37 | inactive
TIGD5 | 1 | -0.3 | inactive
TIGD5 | 1 | -0.5 | inactive
TIGD5 | 1 | -1.26 | inactive
TIGD5 | 1 | -0.79 | inactive
BOLA2B | 1 | -0.13 | inactive
BOLA2B | 1 | -0.21 | inactive
BOLA2B | 1 | -0.55 | inactive
BOLA2B | 1 | 2.25 | inactive
EIF5 | 1 | 0.14 | inactive
EIF5 | 1 | 0.29 | inactive
EIF5 | 1 | -0.06 | inactive
EIF5 | 1 | 0.04 | inactive
VAT1L | 1 | 2.03 | inactive
VAT1L | 1 | 0.19 | inactive
VAT1L | 1 | 0.56 | inactive
VAT1L | 1 | 1.46 | inactive
RPS6KC1 | 1 | 0.68 | inactive
RPS6KC1 | 1 | 0.97 | inactive
RPS6KC1 | 1 | 0.18 | inactive
RPS6KC1 | 1 | -0.84 | inactive
DEFB110 | 1 | 0.5 | inactive
DEFB110 | 1 | 2.1 | inactive
DEFB110 | 1 | 1.75 | inactive
DEFB110 | 1 | 2.53 | inactive
DEFB110 | 2 | 3.27 | active
DEFB110 | 2 | 4.04 | active
DEFB110 | 2 | 2.82 | active
DEFB110 | 2 | 1.14 | inactive
SRSF11 | 1 | 2.25 | inactive
SRSF11 | 1 | 2.21 | inactive
SRSF11 | 1 | 1.27 | inactive
SRSF11 | 1 | 2.72 | inactive
ZCRB1 | 1 | -0.68 | inactive
ZCRB1 | 1 | -0.55 | inactive
ZCRB1 | 1 | -0.46 | inactive
ZCRB1 | 1 | -0.01 | inactive
WAPL | 1 | 0.61 | inactive
WAPL | 1 | 3.25 | active
WAPL | 1 | 0.84 | inactive
WAPL | 1 | 0.18 | inactive
MRPL15 | 1 | -0.98 | inactive
MRPL15 | 1 | -0.51 | inactive
MRPL15 | 1 | -0.49 | inactive
MRPL15 | 1 | -0.03 | inactive
SLC39A9 | 1 | -1.14 | inactive
SLC39A9 | 1 | -0.53 | inactive
SLC39A9 | 1 | -0.31 | inactive
SLC39A9 | 1 | 0 | inactive
PSD4 | 1 | -1.27 | inactive
PSD4 | 1 | -1.1 | inactive
PSD4 | 1 | -0.77 | inactive
PSD4 | 1 | -1.05 | inactive
CILP2 | 1 | -0.45 | inactive
CILP2 | 1 | -0.51 | inactive
CILP2 | 1 | -0.3 | inactive
POM121L12 | 1 | -0.89 | inactive
POM121L12 | 1 | -0.43 | inactive
POM121L12 | 1 | -0.36 | inactive
POM121L12 | 1 | -0.35 | inactive
FZD2 | 1 | 0.12 | inactive
FZD2 | 1 | 0.75 | inactive
FZD2 | 1 | 0.43 | inactive
FZD2 | 1 | 0.17 | inactive
WIPF2 | 1 | -1.03 | inactive
WIPF2 | 1 | -1.21 | inactive
WIPF2 | 1 | -1.42 | inactive
WIPF2 | 1 | -0.57 | inactive
PLEKHF1 | 1 | -0.98 | inactive
PLEKHF1 | 1 | 0 | inactive
PLEKHF1 | 1 | 6.93 | active
PLEKHF1 | 1 | 3.63 | active
CSTF3 | 1 | 0.35 | inactive
CSTF3 | 1 | 0.7 | inactive
CSTF3 | 1 | 0.88 | inactive
CSTF3 | 1 | 2.2 | inactive
HSPBAP1 | 1 | 0.56 | inactive
HSPBAP1 | 1 | 0.89 | inactive
HSPBAP1 | 1 | 0.65 | inactive
HSPBAP1 | 1 | -0.12 | inactive
KLHDC1 | 1 | 0.02 | inactive
KLHDC1 | 1 | -0.12 | inactive
KLHDC1 | 1 | -0.26 | inactive
KLHDC1 | 1 | 0.46 | inactive
PEX11G | 1 | -0.14 | inactive
PEX11G | 1 | -0.54 | inactive
PEX11G | 1 | -0.46 | inactive
PEX11G | 1 | -0.1 | inactive
NUBP2 | 1 | -0.43 | inactive
NUBP2 | 1 | -0.37 | inactive
NUBP2 | 1 | -0.49 | inactive
NUBP2 | 1 | -0.03 | inactive

Active calls, among the entries above:
target | reagent no. | TNF reporter robust z-score | Outcome
RNF121 | 1 | 3.68 | active
RNF121 | 1 | 8.71 | active
MIR1-1HG | 1 | 3.21 | active
SPTB | 1 | 4.16 | active
DEFB110 | 2 | 3.27 | active
DEFB110 | 2 | 4.04 | active
DEFB110 | 2 | 2.82 | active
WAPL | 1 | 3.25 | active
PLEKHF1 | 1 | 6.93 | active
PLEKHF1 | 1 | 3.63 | active
